Source: US20260217692A1 (Ascentage Pharma (Suzhou) Co., Ltd., priority 2023, published 2026)
Counter-ions that a name gives are not always drawn. The source gives many values for each of these; only a part stands here.

Key:
Type in all cases: physicochemical
[1] = Polymorph screening test, suspension method (crystal form by XRPD after stirring in solvent); conditions: suspension method, 3 days
Protocol: (or 50° C.) for 3 days in the dark and centrifuged to remove the supernatant; the resulting precipitate was dried under vacuum (25° C., −0.1 MPa); and the resulting solid was collected and subjected to the XRPD test. The results are as follows:
(or 50° C./80° C.) for 3 days in the dark and centrifuged to remove the supernatant; and the resulting precipitate was dried under vacuum (25° C., −0.1 MPa).
(or 50° C.) for 3 days in the dark and centrifuged to remove the supernatant; and the resulting precipitate was dried under vacuum (25° C., −0.1 MPa).

[2] = Polymorph screening test, volatilization method (crystal form by XRPD); conditions: slow volatilization at room temperature
Excerpt: (§1) The results are as follows:
A total of 15 slow volatilization tests were set up using different solvent systems. […] The resulting solid was collected and subjected to the XRPD test.
A total of 10 slow volatilization tests were set up using different solvent systems. […] The resulting solid was collected and subjected to the XRPD test.
A total of 3 slow volatilization tests were set up using different solvent systems. […] The resulting solid was collected and subjected to the XRPD test.

[3] = Polymorph screening test, poor solvent / anti-solvent method (crystal form by XRPD); conditions: anti-solvent method, stirred 5 days
Excerpt: as §1

Crystal form (XRPD) ([1]; 1,4-Dioxane, 25° C.): Crystal form A | Crystal form (XRPD) ([1]; 1,4-Dioxane, 50° C.): Crystal form A | Crystal form (XRPD) ([1]; 2-Methyltetrahydrofuran, 25° C.): Crystal form A | Crystal form (XRPD) ([1]; 2-Methyltetrahydrofuran, 50° C.): Crystal form A | Crystal form (XRPD) ([1]; Acetone-water 1:1, 25° C.): Crystal form A | Crystal form (XRPD) ([1]; Acetone-water 1:1, 50° C.): Crystal form A | Crystal form (XRPD) ([1]; Acetone, 25° C.): Crystal form A | Crystal form (XRPD) ([1]; Acetone, 50° C.): Crystal form A | Crystal form (XRPD) ([1]; Acetonitrile-water 1:1, 25° C.): Crystal form A | Crystal form (XRPD) ([1]; Acetonitrile-water 1:1, 50° C.): Crystal form A | Crystal form (XRPD) ([1]; Acetonitrile, 25° C.): Crystal form A | Crystal form (XRPD) ([1]; Acetonitrile, 50° C.): Crystal form A | Crystal form (XRPD) ([1]; Cyclohexane, 25° C.): Crystal form A | Crystal form (XRPD) ([1]; Cyclohexane, 50° C.): Crystal form A | Crystal form (XRPD) ([1]; Dichloromethane, 25° C.): Crystal form A | Crystal form (XRPD) ([1]; Dichloromethane, 50° C.): Crystal form A | Crystal form (XRPD) ([1]; Ethanol, 25° C.): Crystal form A | Crystal form (XRPD) ([1]; Ethanol, 50° C.): Crystal form A | Crystal form (XRPD) ([1]; Ethyl acetate, 25° C.): Crystal form A | Crystal form (XRPD) ([1]; Ethyl acetate, 50° C.): Crystal form A | Crystal form (XRPD) ([1]; Isopropanol, 25° C.): Crystal form A | Crystal form (XRPD) ([1]; Isopropanol, 50° C.): Crystal form A | Crystal form (XRPD) ([1]; Isopropyl acetate, 25° C.): Crystal form A | Crystal form (XRPD) ([1]; Isopropyl acetate, 50° C.): Crystal form A | Crystal form (XRPD) ([1]; Methanol-water 1:1, 25° C.): Crystal form A | Crystal form (XRPD) ([1]; Methanol-water 1:1, 50° C.): Crystal form A | Crystal form (XRPD) ([1]; Methanol, 25° C.): Crystal form A | Crystal form (XRPD) ([1]; Methanol, 50° C.): Crystal forms A + B | Crystal form (XRPD) ([1]; Methyl acetate, 25° C.): Crystal form A | Crystal form (XRPD) ([1]; Methyl acetate, 50° C.): Crystal form A | Crystal form (XRPD) ([1]; Methyl ethyl ketone, 25° C.): Crystal form A | Crystal form (XRPD) ([1]; Methyl ethyl ketone, 50° C.): Crystal form A | Crystal form (XRPD) ([1]; Methyl isobutyl ketone, 25° C.): Crystal form A | Crystal form (XRPD) ([1]; Methyl isobutyl ketone, 50° C.): Crystal form A | Crystal form (XRPD) ([1]; Methyl tert-butyl ether, 25° C.): Crystal form A | Crystal form (XRPD) ([1]; Methyl tert-butyl ether, 50° C.): Crystal form A | Crystal form (XRPD) ([1]; Tetrahydrofuran, 25° C.): Crystal form A | Crystal form (XRPD) ([1]; Tetrahydrofuran, 50° C.): Crystal form A | Crystal form (XRPD) ([1]; Toluene, 25° C.): Crystal form A | Crystal form (XRPD) ([1]; Toluene, 50° C.): Crystal form A | Crystal form (XRPD) ([1]; Water, 25° C.): Crystal form A | Crystal form (XRPD) ([1]; Water, 50° C.): Crystal form A | Crystal form (XRPD) ([1]; n-Heptane, 25° C.): Crystal form A | Crystal form (XRPD) ([1]; n-Heptane, 50° C.): Crystal form A | Crystal form (XRPD) ([1]; n-Hexane, 25° C.): Crystal form A | Crystal form (XRPD) ([1]; n-Hexane, 50° C.): Crystal form A | Crystal form (XRPD) ([2]; ACN/DCM (5:7, v/v)): Crystal form A | Crystal form (XRPD) ([2]; Acetone/DCM (5:10, v/v)): Crystal form A | Crystal form (XRPD) ([2]; DCM): Crystal form A | Crystal form (XRPD) ([2]; Dioxane/DCM (5:10, v/v)): Crystal form A | Crystal form (XRPD) ([2]; EA/DCM (5:10, v/v)): Crystal form A | Crystal form (XRPD) ([2]; EtOH/DCM (3:3, v/v)): Crystal forms A + B | Crystal form (XRPD) ([2]; IPA/DCM (4:4, v/v)): Crystal forms A + B | Crystal form (XRPD) ([2]; IPAc/DCM (5:10, v/v)): Crystal form A | Crystal form (XRPD) ([2]; MeOH/DCM (3:2, v/v)): Crystal form A | Crystal form (XRPD) ([2]; THF/DCM (5:10, v/v)): Crystal form A | Crystal form (XRPD) ([3]; good solvent DCM, poor solvent ACN): Crystal form A | Crystal form (XRPD) ([3]; good solvent DCM, poor solvent Acetone): Crystal form B | Crystal form (XRPD) ([3]; good solvent DCM, poor solvent Dioxane): Crystal form B | Crystal form (XRPD) ([3]; good solvent DCM, poor solvent EA): Crystal form B | Crystal form (XRPD) ([3]; good solvent DCM, poor solvent MTBE): Crystal form B | Crystal form (XRPD) ([3]; good solvent DCM, poor solvent MeOH): No solid sample was obtained | Crystal form (XRPD) ([3]; good solvent DCM, poor solvent Water): No solid sample was obtained | Crystal form (XRPD) ([3]; good solvent DCM, poor solvent n-Heptane): Crystal forms A + B | Crystal form (XRPD) ([3]; good solvent DMF, poor solvent Dioxane): No solid sample was obtained | Crystal form (XRPD) ([3]; good solvent DMF, poor solvent MTBE): Crystal form B | Crystal form (XRPD) ([3]; good solvent DMF, poor solvent Water): Crystal form A | Crystal form (XRPD) ([3]; good solvent DMF, poor solvent n-Heptane): No solid sample was obtained | Crystal form (XRPD) ([3]; good solvent DMSO, poor solvent Dioxane): No solid sample was obtained | Crystal form (XRPD) ([3]; good solvent DMSO, poor solvent MTBE): No solid sample was obtained | Crystal form (XRPD) ([3]; good solvent DMSO, poor solvent Water): Crystal form A | Crystal form (XRPD) ([3]; good solvent DMSO, poor solvent n-Heptane): No solid sample was obtained | Crystal form (XRPD) ([3]; good solvent NMP, poor solvent Dioxane): No solid sample was obtained | Crystal form (XRPD) ([3]; good solvent NMP, poor solvent MTBE): Crystal form A | Crystal form (XRPD) ([3]; good solvent NMP, poor solvent Water): Crystal form B | Crystal form (XRPD) ([3]; good solvent NMP, poor solvent n-Heptane): No solid sample was obtained
SMILES: Cc1cc(Nc2ncc(Cl)c(Nc3ccccc3S(=O)(=O)C(C)C)n2)c(OC(C)C)cc1C1=CCN(C2CCOCC2)CC1 [one equivalent of maleate crystal form A]
